Reference: patent US7388012B2, “(Hydrazido)(amino)thiophene compounds” (OSI Pharmaceuticals, Inc., priority 2004, dated 2008)
Some entries share one result that the patent states for a list of compounds.

Sequences of proteins named here, by UniProt entry; tags and fusion partners are left off. Residues count along the entry.
UniProt P10721, 26-976: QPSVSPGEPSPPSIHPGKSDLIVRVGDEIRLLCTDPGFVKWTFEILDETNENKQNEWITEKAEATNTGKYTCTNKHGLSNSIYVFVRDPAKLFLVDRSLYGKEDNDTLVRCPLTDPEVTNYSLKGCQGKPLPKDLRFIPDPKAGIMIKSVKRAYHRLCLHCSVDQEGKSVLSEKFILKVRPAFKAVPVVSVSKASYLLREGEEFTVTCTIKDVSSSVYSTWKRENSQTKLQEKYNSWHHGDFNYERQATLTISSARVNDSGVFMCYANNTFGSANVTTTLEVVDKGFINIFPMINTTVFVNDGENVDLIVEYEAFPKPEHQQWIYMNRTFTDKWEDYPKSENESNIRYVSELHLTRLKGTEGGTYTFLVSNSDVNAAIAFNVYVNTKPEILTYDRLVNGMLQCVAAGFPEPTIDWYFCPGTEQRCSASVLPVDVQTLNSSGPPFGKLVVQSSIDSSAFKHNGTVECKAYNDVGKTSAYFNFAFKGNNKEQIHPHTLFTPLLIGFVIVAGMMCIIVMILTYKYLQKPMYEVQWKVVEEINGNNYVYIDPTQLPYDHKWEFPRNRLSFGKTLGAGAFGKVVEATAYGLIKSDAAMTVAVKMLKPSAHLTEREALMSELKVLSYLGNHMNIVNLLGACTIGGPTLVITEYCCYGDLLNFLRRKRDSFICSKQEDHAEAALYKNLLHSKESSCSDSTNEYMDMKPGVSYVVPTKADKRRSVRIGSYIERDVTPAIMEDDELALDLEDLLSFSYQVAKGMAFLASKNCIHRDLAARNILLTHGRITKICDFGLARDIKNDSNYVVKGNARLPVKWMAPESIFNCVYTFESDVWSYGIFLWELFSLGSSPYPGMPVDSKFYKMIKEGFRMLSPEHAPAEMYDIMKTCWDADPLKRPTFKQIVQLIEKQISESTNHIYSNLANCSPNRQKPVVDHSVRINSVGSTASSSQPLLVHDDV

Molecular target: T1, wild-type c-Kit receptor protein endogenously expressed in H526 cells (Homo sapiens, UniProt P10721)
T1 construct: wild-type c-Kit receptor protein that is endogenously expressed in H526 cells; host or cells: H526 human small cell lung cancer cells
Experiment: C-KIT H526 cell assay: cell-based ELISA of SCF-stimulated c-Kit tyrosine phosphorylation
Conditions: 3 h compound pre-incubation, SCF stimulation 15 min, read-out: IC50 (concentration of compound that inhibits SCF-induced tyrosine phosphorylation of the c-Kit protein by 50%)

CC(C)(C)NNC(=O)c1sccc1NCc1ccnc2ccccc12 [Compound 1]
IC50: > 50 µM

O=C(NN1CCOCC1)c1sccc1NCc1ccnc2ccccc12 [Compound 2, N-morpholin-4-yl-3-[(quinolin-4-ylmethyl)amino]thiophene-2-carboxamide]
IC50: > 50 µM
